Source: patent US8557996B2, “Heteroaryl-substituted alkyne compounds and method of use” (Amgen Inc., priority 2004, dated 2013)
Some entries share one result that the patent states for a list of compounds.

Sequences of proteins named here, by UniProt entry; tags and fusion partners are left off. Residues count along the entry.
UniProt Q02763, 23-1124: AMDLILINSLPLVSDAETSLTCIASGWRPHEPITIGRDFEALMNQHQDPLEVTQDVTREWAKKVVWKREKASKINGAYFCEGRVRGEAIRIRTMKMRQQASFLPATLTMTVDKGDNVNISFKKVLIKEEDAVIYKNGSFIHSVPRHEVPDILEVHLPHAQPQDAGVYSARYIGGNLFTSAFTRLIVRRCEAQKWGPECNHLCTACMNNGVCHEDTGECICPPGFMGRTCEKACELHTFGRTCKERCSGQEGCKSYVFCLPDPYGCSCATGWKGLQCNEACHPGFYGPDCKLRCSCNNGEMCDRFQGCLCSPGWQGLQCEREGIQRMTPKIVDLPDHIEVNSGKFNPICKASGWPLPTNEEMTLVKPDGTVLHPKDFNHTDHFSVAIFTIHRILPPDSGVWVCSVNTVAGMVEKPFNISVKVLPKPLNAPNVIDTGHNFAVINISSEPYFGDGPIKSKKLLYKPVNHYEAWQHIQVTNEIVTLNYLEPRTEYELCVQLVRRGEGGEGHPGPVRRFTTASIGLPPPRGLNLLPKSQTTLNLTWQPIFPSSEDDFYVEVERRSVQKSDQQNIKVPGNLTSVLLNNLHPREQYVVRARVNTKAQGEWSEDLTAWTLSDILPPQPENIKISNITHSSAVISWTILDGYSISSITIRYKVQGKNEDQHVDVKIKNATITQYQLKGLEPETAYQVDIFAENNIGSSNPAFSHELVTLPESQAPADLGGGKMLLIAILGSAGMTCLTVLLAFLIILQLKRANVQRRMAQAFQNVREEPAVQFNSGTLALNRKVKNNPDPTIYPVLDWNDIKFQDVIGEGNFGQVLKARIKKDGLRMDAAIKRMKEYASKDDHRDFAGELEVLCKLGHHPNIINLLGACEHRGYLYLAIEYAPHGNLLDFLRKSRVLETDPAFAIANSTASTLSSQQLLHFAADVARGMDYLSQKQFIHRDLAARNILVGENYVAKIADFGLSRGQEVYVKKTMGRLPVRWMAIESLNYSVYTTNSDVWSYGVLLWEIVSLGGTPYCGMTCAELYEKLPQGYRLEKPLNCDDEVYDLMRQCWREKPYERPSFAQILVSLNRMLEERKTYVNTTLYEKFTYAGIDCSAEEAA

These compounds were tested against Tie-2 kinase enzyme (Homo sapiens, UniProt Q02763) (assay: TIE-2 Homogenous Time Resolved Flourescent (HTRF) kinase assay). Conditions: read-out: IC50 for the inhibition of Tie-2 as measured by the HTRF assay.

Structure (SMILES)	IC50 [µM]
CN1CC[C@@H](N(C)c2ccc(C(F)(F)F)cc2NC(=O)c2cc(F)cc(C#Cc3cnc(N)nc3)c2)C1 (racemic) [Example 41]	≤ 10
Cc1nc(N)ncc1C#Cc1ccc(F)c(C(=O)Nc2cc(C(F)(F)F)ccc2N(C)[C@@H]2CCN(C)C2)c1 (stereo in doubt) [Example 37]	≤ 10
Cc1ccc(C(=O)N[C@@H](C)c2nccs2)cc1C#Cc1cnc(N)nc1 (stereo in doubt) [Example 64]	≤ 10
Cc1ccc(C(=O)Nc2cc(CN3CCN(C)CC3)cc(C(F)(F)F)c2)cc1C#Cc1cnc(N)nc1 [Example 2, 3-(2-(2-aminopyrimidin-5-yl)ethynyl)-4-methyl-N-(3-((4-methylpiperazin-1-yl)methyl)-5-(trifluoromethyl)phenyl)benzamide]	≤ 10
Nc1ncc(C#Cc2cncc(C(=O)Nc3cccc(C(F)(F)F)c3)c2)cn1 [Example 3]	≤ 10
Cc1ccc(C(=O)Nc2cc(C(F)(F)F)ccc2N2CCN(C)CC2)cc1C#Cc1cnc(N)nc1 [Example 5]	≤ 10
Cc1ccc(C(=O)Nc2cc(C(F)(F)F)ccc2N(C)CCCN(C)C)cc1C#Cc1cnc(N)nc1 [Example 6]	≤ 10
Cc1ccc(C(=O)Nc2cc(C(F)(F)F)ccc2N(C)C)cc1C#Cc1cnc(N)nc1 [Example 7]	≤ 10
Cc1ccc(C(=O)Nc2cc(C(F)(F)F)ccc2N2CC[C@@H](N(C)C)C2)cc1C#Cc1cnc(N)nc1 [Example 8]	≤ 10
Cc1ccc(C(=O)Nc2cc(C(F)(F)F)ccc2N(C)C2CCN(C)CC2)cc1C#Cc1cnc(N)nc1 [Example 9]	≤ 10
Cc1ccc(C(=O)Nc2cc(C(F)(F)F)ccc2C(C)(C)CN(C)C)cc1C#Cc1cnc(N)nc1 [Example 11]	≤ 10
Cc1ccc(C(=O)Nc2cc(C(F)(F)F)ccc2N2CCC[C@H](N(C)C)C2)cc1C#Cc1cnc(N)nc1 [Example 12]	≤ 10
CN1CCC(N(C)c2ccc(C(F)(F)F)cc2NC(=O)c2cc(C#Cc3cnc(N)nc3)ccc2F)C1 (stereo not drawn) [Example 13]	≤ 10
COc1ccc(C2CCCCC2)cc1NC(=O)c1ccc(C)c(C#Cc2cnc(N)nc2)c1 [Example 16]	≤ 10
Cc1ccc(C(=O)N2CCc3ccc(C(F)(F)F)cc32)cc1C#Cc1cnc(N)nc1 [Example 17]	≤ 10
Cc1ccc(C(=O)N2CCCc3ccc(C(F)(F)F)cc32)cc1C#Cc1cnc(N)nc1 [Example 18]	≤ 10
Cc1ccc(C(=O)Nc2cc(C(F)(F)F)ccc2-n2cnc(CO)c2)cc1C#Cc1cnc(N)nc1 [Example 19]	≤ 10
CN(C)CCCN(C)c1ncc(C(F)(F)F)cc1NC(=O)c1cc(C#Cc2cnc(N)nc2)ccc1F [Example 20]	≤ 10
Cc1ccc(C(=O)Nc2cc(C(F)(F)F)cnc2N(C)CCCN(C)C)cc1C#Cc1cnc(N)nc1 [Example 21]	≤ 10
Cc1ccc(C(=O)Nc2cc(C3=CCNCC3)cc(C(F)(F)F)c2)cc1C#Cc1cnc(N)nc1 [Example 22]	≤ 10
Cc1ccc(C(=O)Nc2cc(C3CCN(C)CC3)cc(C(F)(F)F)c2)cc1C#Cc1cnc(N)nc1 [Example 23]	≤ 10
Nc1ncc(C#Cc2ccc(C(=O)Nc3cccc(C(F)(F)F)c3)s2)cn1 [Example 24]	≤ 10
CN(C)CCCN(C)c1ccc(C(F)(F)F)cc1NC(=O)c1ccc(C#Cc2cnc(N)nc2)s1 [Example 25]	≤ 10
Cc1ccc(C(=O)Nc2ccc(C(C)(C)C)cc2)cc1C#Cc1cnc(N)nc1 [Example 26]	≤ 10

Structure (SMILES)	IC50 [µM]
Cc1ccc(C(=O)Nc2cc(C(C)(C)C)ccc2N(C)CCCN(C)C)cc1C#Cc1cnc(N)nc1 [Example 27]	≤ 10
CN(C)CCCN(C)c1ccc(C(C)(C)C)cc1NC(=O)c1ccc(C#Cc2cnc(N)nc2)s1 [Example 28]	≤ 10
Cc1ccc(C(=O)Nc2cc(C(F)(F)F)cc(C(F)(F)F)c2)cc1C#Cc1cnc(N)nc1 [Example 29]	≤ 10
Nc1ncc(C#Cc2cc(C(=O)Nc3cccc(C(F)(F)F)c3)ccc2Cl)cn1 [Example 30]	≤ 10
Cc1ccc(C(=O)Nc2cc(C(F)(F)F)cc(Cl)c2N(C)CCCN(C)C)cc1C#Cc1cnc(N)nc1 [Example 31]	≤ 10
Cc1cc(NC(=O)c2ccc(Cl)c(C#Cc3cnc(N)nc3)c2)ccc1C(C)C [Example 32]	≤ 10
CC(C)(C)c1ccc(NC(=O)c2ccc(Cl)c(C#Cc3cnc(N)nc3)c2)cc1 [Example 33]	≤ 10
Cc1ccc(C(=O)Nc2cc(C(F)(F)F)ccc2N(C)CCCN(C)C)cc1C#Cc1cnc(N)nc1C [Example 34]	≤ 10
Nc1ncc(C#Cc2cc(C(=O)Nc3cccc(C(F)(F)F)c3)cs2)cn1 [Example 36]	≤ 10
Cc1ccc(C(=O)Nc2cc(Cl)ccc2N(C)CCCN(C)C)cc1C#Cc1cnc(N)nc1 [Example 38]	≤ 10
Cc1ccc(C(=O)Nc2ccc(Cl)c(C(F)(F)F)c2)cc1C#Cc1cnc(N)nc1 [Example 39]	≤ 10
Cc1ccc(C(=O)Nc2ccc(C(C)C)c(C)c2)cc1C#Cc1cnc(N)nc1 [Example 40]	≤ 10
CN1CCN(Cc2cc(NC(=O)c3cc(C#Cc4cnc(N)nc4)ccc3F)cc(C(F)(F)F)c2)CC1 [Example 42]	≤ 10
Cc1ccc(C(=O)Nc2cc(C(=O)N3CCN(C)CC3)cc(C(F)(F)F)c2)cc1C#Cc1cnc(N)nc1 [Example 43]	≤ 10
CN1CCN(C(=O)c2cc(NC(=O)c3cc(C#Cc4cnc(N)nc4)ccc3F)cc(C(F)(F)F)c2)CC1 [Example 44]	≤ 10
Cc1ccc(C(=O)Nc2cc(C(F)(F)F)ccc2S(=O)(=O)N2CCN(C)CC2)cc1C#Cc1cnc(N)nc1 [Example 46]	≤ 10
CN1CCC(c2cc(NC(=O)c3csc(C#Cc4cnc(N)nc4)c3)cc(C(F)(F)F)c2)CC1 [Example 47]	≤ 10
CN(C)CCCN(C)c1c(Cl)cc(C(F)(F)F)cc1NC(=O)c1cc(C#Cc2cnc(N)nc2)ccc1F [Example 48]	≤ 10
CN(C)CCCN(C)S(=O)(=O)c1ccc(C(F)(F)F)cc1NC(=O)c1cc(C#Cc2cnc(N)nc2)ccc1F [Example 49]	≤ 10
CN1CCN(S(=O)(=O)c2ccc(C(F)(F)F)cc2NC(=O)c2cc(C#Cc3cnc(N)nc3)ccc2F)CC1 [Example 50]	≤ 10
Cc1ccc(C(=O)Nc2cccc(C(F)(F)F)c2C)cc1C#Cc1cnc(N)nc1 [Example 51]	≤ 10
Cc1ccc(C(=O)Nc2cccc(OC(F)(F)F)c2)cc1C#Cc1cnc(N)nc1 [Example 52]	≤ 10
COc1ccc(C(=O)Nc2cccc(OC(F)(F)F)c2)cc1C#Cc1cnc(N)nc1 [Example 53]	≤ 10
CN(C)CCCN(C)c1ccc(C(F)(F)F)cc1NC(=O)c1csc(C#Cc2cnc(N)nc2)c1 [Example 54]	≤ 10

Structure (SMILES)	IC50 [µM]
CN(C)CCCN(C)c1ccc(C(F)(F)F)cc1NC(=O)c1cc(C#Cc2cnc(N)nc2)cs1 [Example 55]	≤ 10
Nc1ncc(C#Cc2ccc(F)c(C(=O)Nc3cc(C(=O)N4CCS(=O)(=O)CC4)cc(C(F)(F)F)c3)c2)cn1 [Example 56]	≤ 10
Cc1nc(N)ncc1C#Cc1ccc(F)c(C(=O)Nc2cc(C(F)(F)F)cc(Cl)c2N(C)CCCN(C)C)c1 [Example 57]	≤ 10
Nc1ncc(C#Cc2ccc(F)c(C(=O)Nc3cc(C(F)(F)F)ccc3-n3cncn3)c2)cn1 [Example 58]	≤ 10
Cc1ccc(C(=O)N[C@H](C)c2ccccc2)cc1C#Cc1cnc(N)nc1 [Example 59]	≤ 10
CN(C)Cc1ccc(C(F)(F)F)cc1NC(=O)c1cc(C#Cc2cnc(N)nc2)ccc1F [Example 60]	≤ 10
Cc1cc(NC(=O)c2ccc(C)c(C#Cc3cnc(N)nc3)c2)on1 [Example 61]	≤ 10
CN(C)CCCN(C)c1ccc(C2CC2)cc1NC(=O)c1cc(C#Cc2cnc(N)nc2)ccc1F [Example 62]	≤ 10
CN1CCC[C@H]1COc1cc(NC(=O)c2csc(C#Cc3cnc(N)nc3)c2)cc(C(F)(F)F)c1 [Example 63]	≤ 10
Cc1ccc(C(=O)Nc2cc(C(F)(F)F)ccc2N2CCSCC2)cc1C#Cc1cnc(N)nc1 [Example 66]	≤ 10
Cc1ccc(C(=O)Nc2onc(C)c2C)cc1C#Cc1cnc(N)nc1 [Example 67]	≤ 10
COc1ccc(C(=O)Nc2cc(C3CCN(C)CC3)cc(C(F)(F)F)c2)cc1C#Cc1cnc(N)nc1 [Example 69]	≤ 10
CN1CC[C@H](N(C)c2ccc(C(F)(F)F)cc2NC(=O)c2cc(C#Cc3cnc(N)nc3)ccc2F)C1 [Example 71]	≤ 10
CN1CC[C@@H](N(C)c2ccc(C(F)(F)F)cc2NC(=O)c2cc(C#Cc3cnc(N)nc3)ccc2F)C1 [Example 72]	≤ 10
Cc1ccc(C(=O)Nc2cc(N3CCN(C)CC3)cc(C(F)(F)F)c2)cc1C#Cc1cnc(N)nc1 [Example 73]	≤ 10
COc1ccc(C#Cc2cnc(N)nc2)cc1C(=O)Nc1cc(CN2CCN(C)CC2)cc(C(F)(F)F)c1 [Example 74]	≤ 10
CN(C)CCCN(C)c1ccc(C(F)(F)F)cc1NC(=O)c1cc(C#Cc2cnc(N)nc2)cc2c1OCC2 [Example 75]	≤ 10
Nc1ncc(C#Cc2cccc(C(=O)Nc3cccc(C(F)(F)F)c3)n2)cn1 [Example 76]	≤ 10
Nc1ncc(C#Cc2cc(C(=O)Nc3cccc(C(F)(F)F)c3)ccn2)cn1 [Example 77]	≤ 10
Nc1ncc(C#Cc2cc(NC(=O)c3cccc(C(F)(F)F)c3)cc(C(F)(F)F)c2)cn1 [Example 79]	≤ 10
Cc1cc(NC(=O)Nc2cccc(C(F)(F)F)c2)ccc1C#Cc1cnc(N)nc1 [Example 81, 1-(4-(2-(2-aminopyrimidin-5-yl)ethynyl)-3-methylphenyl)-3-(3-(trifluoromethyl)phenyl)urea]	≤ 10
Cc1ccc(C(=O)Nc2cc(CN3CCN(C)CC3)cc(C(F)(F)F)c2)cc1C#Cc1cnc2ccccc2n1 [Example 83, 4-methyl-N-(3-((4-methylpiperazin-1-yl)methyl)-5-(trifluoromethyl)phenyl)-3-(2-(quinoxalin-2-yl)ethynyl)benzamide]	≤ 10
Nc1ncc(C#Cc2cn(C(=O)Nc3cccc(C(F)(F)F)c3)c3ccccc23)cn1 [Example 84]	≤ 10
Cc1ccc(C(=O)Nc2cc(OC[C@@H]3CCCN3C)cc(C(F)(F)F)c2)cc1C#Cc1cnc2ccccc2c1 [Example 87]	≤ 10
